# From PubChem BioAssay AID1645882 (National Center for Advancing Translational Sciences (NCATS), 2021)
# By UniProt entry, the sequences of proteins in these tests, tags left out. Where a name states a change or a piece, a line headed by the entry shows the natural chain unless it says otherwise.
# UniProt O95398: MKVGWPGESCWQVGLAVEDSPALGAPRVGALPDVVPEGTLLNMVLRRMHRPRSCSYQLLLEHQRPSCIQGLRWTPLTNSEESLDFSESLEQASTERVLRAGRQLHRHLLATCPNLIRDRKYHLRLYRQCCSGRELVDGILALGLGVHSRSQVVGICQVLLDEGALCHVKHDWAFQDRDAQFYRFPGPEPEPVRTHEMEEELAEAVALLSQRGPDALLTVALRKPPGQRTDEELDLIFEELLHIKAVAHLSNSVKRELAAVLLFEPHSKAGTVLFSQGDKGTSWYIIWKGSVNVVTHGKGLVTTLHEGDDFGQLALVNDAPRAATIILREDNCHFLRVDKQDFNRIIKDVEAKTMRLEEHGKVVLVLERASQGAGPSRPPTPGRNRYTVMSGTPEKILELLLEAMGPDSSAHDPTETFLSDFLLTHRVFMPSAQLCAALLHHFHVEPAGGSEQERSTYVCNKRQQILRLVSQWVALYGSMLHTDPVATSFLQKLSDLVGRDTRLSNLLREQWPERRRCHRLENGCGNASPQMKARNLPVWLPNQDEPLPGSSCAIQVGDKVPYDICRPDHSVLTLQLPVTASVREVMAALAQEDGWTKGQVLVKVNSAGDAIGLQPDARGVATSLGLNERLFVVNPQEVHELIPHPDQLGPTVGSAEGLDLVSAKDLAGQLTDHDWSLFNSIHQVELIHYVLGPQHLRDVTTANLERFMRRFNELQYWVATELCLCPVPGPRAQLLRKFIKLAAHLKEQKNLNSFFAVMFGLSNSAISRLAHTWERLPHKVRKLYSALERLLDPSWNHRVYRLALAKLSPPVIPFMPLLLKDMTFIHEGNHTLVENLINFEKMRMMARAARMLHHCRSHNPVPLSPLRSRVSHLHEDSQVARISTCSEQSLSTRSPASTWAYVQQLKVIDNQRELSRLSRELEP
# This list holds what a sample rich in hits left over. Results filed as inconclusive are left out. Calls of active or inactive are those of the source. The call rests on the fitted dose curve; in most records, active means well fitted inhibition curve with a large enough effect; inconclusive means small, poorly fitted or top-dose-only effect; inactive means no such curve, though single readings can be large or run the other way.
# Molecular target: Rap guanine nucleotide exchange factor 3 (Homo sapiens) (UniProt O95398)
# Assay: Validation qHTS for antagonist of cAMP-regulated guanine nucleotide exchange factor 3 (EPAC1);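 further: plate controls were DMSO for no effect and ATA control for full effect; nearly all actives have a fitted effect of over 75% in size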
# Settings: EPAC1 Rap1B-BODIPY-GDP exchange, fluorescence; at 150 µM (top of the series)
# From the text: Assay Provider (PI): Xiaodong Cheng Ph.D.
# The University of Texas Medical Branch, […], TX
# In multi-cellular eukaryotic organisms, the effects of cAMP are transduced by two ubiquitously-expressed intracellular cAMP receptors, the classic protein kinase A/cAMP-dependent protein kinase (PKA/cAPK) and the more recently discovered exchange protein directly activated by cAMP/cAMP-regulated guanine nucleotide exchange factor (EPAC/cAMP-GEF). Both PKA and EPAC are ubiquitously expressed in all tissues, and an increase in intracellular cAMP levels will lead to the activation of both PKA and EPAC. […]
# This qHTS will be used to screen the Molecular Libraries Small Molecule Repository (MLSMR) as a concentration-titration series using the NCGC unique quantitative screening (qHTS) platform to find activators for EPAC1. […] Activators are identified by monitoring the change in fluorescence signal as the exchanged free BODIPY-GDP has a reduced fluorescence compared to Rap1-bound BODIPY-GDP. […]
# Briefly, three uL of reagents (100 nM EPAC1, 250 nM RAP1B-BODIPY-GDP, 50 uM GDP) were dispensed into a 1536-well Greiner black solid-bottom medium binding assay plate. […] The assay plates were read at 5 minute intervals for 30 minutes in the ViewLux plate reader using 480nm excitation and 540nm emission filters. […]
row,SMILES,"activity change, negative = inhibition"
1,CC(C)(C)c1ccc(O)cc1,inactive: 17.6%
